Measured values from paper PMC5467237.
Results are given in words; binding and its absence hold for the method and conditions named. In cells and extracts the contact can be indirect. Some entries that bind do so weakly or less than the wild type. For part of these data: Tags and fused reporters may be left off the sequences shown.

Sequences of proteins named here, by UniProt entry; tags and fusion partners are left off.
UniProt P99999: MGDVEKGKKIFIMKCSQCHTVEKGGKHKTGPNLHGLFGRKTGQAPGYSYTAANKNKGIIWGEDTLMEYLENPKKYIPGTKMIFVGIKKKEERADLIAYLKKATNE

T1: endogenous MICS1 (precipitated with anti-MICS1) (UniProt Q9H3K2)
T1 sequence: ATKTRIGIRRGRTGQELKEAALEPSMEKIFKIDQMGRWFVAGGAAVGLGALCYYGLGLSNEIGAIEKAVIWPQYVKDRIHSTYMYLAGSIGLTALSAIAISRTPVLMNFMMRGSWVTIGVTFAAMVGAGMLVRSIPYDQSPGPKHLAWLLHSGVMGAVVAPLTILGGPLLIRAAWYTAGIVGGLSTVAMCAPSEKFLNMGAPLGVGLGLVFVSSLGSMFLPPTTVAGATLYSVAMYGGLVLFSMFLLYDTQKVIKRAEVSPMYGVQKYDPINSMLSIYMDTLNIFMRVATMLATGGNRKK


How the values were obtained:
[1] = molecular target: T1, endogenous MICS1 (precipitated with anti-MICS1); assay: co-IP; endogenous proteins; lysates from cells treated with or without DSP, immunoprecipitated with anti-MICS1 or a control antibody; co-precipitates analysed in the presence or absence of DTT
Cyt c-FLAG = Cyt c-FLAG (UniProt P99999); assay: co-IP; transfected HEK293T cells treated with 0.5 mg/ml DSP (thiol-cleavable crosslinker) at 25 °C for 15-20 min, lysed in 50 mM Tris-HCl pH 8.0, 150 mM NaCl, 1% Triton X-100, 0.1% SDS; anti-FLAG or anti-Myc beads 3 h at 4 °C; western blot

| binding [1] | binding (Cyt c-FLAG) | Molecule |
| --- | --- | --- |
| binds | – | endogenous Cyt c (from UniProt P99999 1-105) |
| – | no binding | Tim23 (protein, UniProt O14925 1-209) MEGGGGSGNKTTGGLAGFFGAGGAGYSHADLAGVPLTGMNPLSPYLNVDPRYLVQDTDEFILPTGANKTRGRFELAFFTIGGCCMTGAAFGAMNGLRLGLKETQNMAWSKPRNVQILNMVTRQGALWANTLGSLALLYSAFGVIIEKTRGAEDDLNTVAAGTMTGMLYKCTGGLRGIARGGLTGLTLTSLYALYNNWEHMKGSLLQQSL |
| – | binds | MICS1-HA (protein, UniProt Q9H3K2 46-345) ATKTRIGIRRGRTGQELKEAALEPSMEKIFKIDQMGRWFVAGGAAVGLGALCYYGLGLSNEIGAIEKAVIWPQYVKDRIHSTYMYLAGSIGLTALSAIAISRTPVLMNFMMRGSWVTIGVTFAAMVGAGMLVRSIPYDQSPGPKHLAWLLHSGVMGAVVAPLTILGGPLLIRAAWYTAGIVGGLSTVAMCAPSEKFLNMGAPLGVGLGLVFVSSLGSMFLPPTTVAGATLYSVAMYGGLVLFSMFLLYDTQKVIKRAEVSPMYGVQKYDPINSMLSIYMDTLNIFMRVATMLATGGNRKK |
